Test results published in article PMC7819943, “Rice protein-binding microarrays: a tool to detect cis-acting elements near promoter regions in rice”.
The list shows a part of the results.

Each sequence was assayed against T1, OsSMF1 (Oryza sativa, UniProt Q6ZLB0 1-436) (assay: protein-binding microarray (RPBM); PBS, 2% BSA, 51.3 ng/ul salmon testes DNA, 50 uM zinc acetate, 200 nM TF, 25 C, 1 h; high values mean tight binding). Conditions: protein: recombinant; tags: N-terminal polyhistidine and DsRed monomer fusion (pET32a); chain copies: 2; label: CyDye5-dUTP incorporated in the synthesized complementary strand; 3' TTTTT single-stranded linker to array surface; dsDNA, one strand shown.
T1 sequence: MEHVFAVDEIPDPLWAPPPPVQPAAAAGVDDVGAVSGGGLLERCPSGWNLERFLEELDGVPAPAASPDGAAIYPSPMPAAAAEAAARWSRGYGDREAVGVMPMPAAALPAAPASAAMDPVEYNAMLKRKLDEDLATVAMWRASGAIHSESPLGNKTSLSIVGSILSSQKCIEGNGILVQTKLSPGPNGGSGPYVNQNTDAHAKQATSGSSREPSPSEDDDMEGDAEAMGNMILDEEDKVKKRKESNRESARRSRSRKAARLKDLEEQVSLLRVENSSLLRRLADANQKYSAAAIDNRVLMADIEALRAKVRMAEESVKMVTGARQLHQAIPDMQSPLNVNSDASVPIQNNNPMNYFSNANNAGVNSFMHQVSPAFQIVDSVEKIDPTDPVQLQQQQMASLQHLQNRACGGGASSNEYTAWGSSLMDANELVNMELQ
Method in brief: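 Transcription factors were each fused at the N-terminus to a polyhistidine tag plus DsRed and expressed in E. coli BL21-CodonPlus before Ni–NTA purification. Binding to a double-stranded custom Agilent array was carried out with 200 nM protein at 25 °C for 1 h in PBS, 2% BSA, salmon testes DNA and 50 µM zinc acetate. The binding signal is per-feature fluorescence intensity, in arbitrary units, on an Axon 4000B scanner.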

Sequence | binding signal
CCAAACCTACACGTCCCAGTTCAGTCATTCATCCTGCTAGCGGAGTCACCTAGTGCAG | 4890 fluorescence intensity (a.u.)
GCGGCGCTGCTACTGTCGCCGCATAACCCTCGTCTTCACCCGGAGTCACCTAGTGCAG | 26100 fluorescence intensity (a.u.)
TCCCTTCCTGGCGCTGTCAGCTTGTGGGGTCGGGATGTCACGGAGTCACCTAGTGCAG | 3300 fluorescence intensity (a.u.)
GACCTGGTCTTACATCACTTTCGTAATTGCTGCTTCGATTCGGAGTCACCTAGTGCAG | 3490 fluorescence intensity (a.u.)
CACTCAGATGGTCCCACATGTCATCCTCACAAGTGTCAATCGGAGTCACCTAGTGCAG | 4210 fluorescence intensity (a.u.)
CAGCGTGTCCTTCATGACACCGTGGATCCAGTGAATCGGCCGGAGTCACCTAGTGCAG | 5940 fluorescence intensity (a.u.)
TTCAAGTCCAACCTCGGCCACATGCTCCGCCTCCGCCTCGCGGAGTCACCTAGTGCAG | 3780 fluorescence intensity (a.u.)
GTTACCTGCATTTTGAGAGCCTCTCTCCTCTCATGGGTTGCGGAGTCACCTAGTGCAG | 26100 fluorescence intensity (a.u.)
TGGACGATTAGCCAAATGTAAAACGAGAAACACGAATAACCGGAGTCACCTAGTGCAG | 18900 fluorescence intensity (a.u.)
TTTCGTGGCTGATTCCCCTATTGGGCCTGGCCCAGTTGGACGGAGTCACCTAGTGCAG | 3210 fluorescence intensity (a.u.)
AATTTGTCCCTGGTGACCGTGACATCAGATTGAGTATCACCGGAGTCACCTAGTGCAG | 3410 fluorescence intensity (a.u.)
GCGCTCACCGCCTCTCCGTGGCGCTCCGTCAAGCTTCGCGCGGAGTCACCTAGTGCAG | 3320 fluorescence intensity (a.u.)
TTACTTTGTGACCATCCGCGACGTCACGCTCACATCATTTCGGAGTCACCTAGTGCAG | 4080 fluorescence intensity (a.u.)
ATCGCGAGATGAATCTTTTGAGCCTATTTAGTCCATGATTCGGAGTCACCTAGTGCAG | 4690 fluorescence intensity (a.u.)
AGTTGGATGGATGGATTTGGATGAATGGATGGGGACAAACCGGAGTCACCTAGTGCAG | 3320 fluorescence intensity (a.u.)
TCCATGATTAGTCATAAAGTGTTACAGTAATCTACATGTGCGGAGTCACCTAGTGCAG | 3670 fluorescence intensity (a.u.)
TTTTGAACATTGCGTCATACATTAATACCTACATATTTCACGGAGTCACCTAGTGCAG | 6960 fluorescence intensity (a.u.)
TTCATTACTGGAGAGATATGCATCATCAGTGGAAGCTTATCGGAGTCACCTAGTGCAG | 3340 fluorescence intensity (a.u.)
GTCCGCCACGTGTCGCGTGGCCCACCGTGGCCCTCATGGGCGGAGTCACCTAGTGCAG | 37400 fluorescence intensity (a.u.)
CATCTTACATCTTGATCACTCAGTAAGTTCTCCCATGTATCGGAGTCACCTAGTGCAG | 33300 fluorescence intensity (a.u.)
AGTCAATTATATGGGTATGGGTACACGTTACCCGCGTGGGCGGAGTCACCTAGTGCAG | 4420 fluorescence intensity (a.u.)

Random excerpt: 2 records from the list
Sequence | binding signal
CATCTTACATCTTGATCACTCAGTAAGTTCTCCCATGTATCGGAGTCACCTAGTGCAG | 33300 fluorescence intensity (a.u.)
CCAAACCTACACGTCCCAGTTCAGTCATTCATCCTGCTAGCGGAGTCACCTAGTGCAG | 4890 fluorescence intensity (a.u.)

The results go on:

Sequence | binding signal
TAGGTTCACCAAGCTTCCTGATGATGTCTTGCTCAACATCCGGAGTCACCTAGTGCAG | 3440 fluorescence intensity (a.u.)
GCTTTTACCGTTTCATGTCACACTTGTGTAGCTGTATTTTCGGAGTCACCTAGTGCAG | 3320 fluorescence intensity (a.u.)
CTATATCCGTCGCCTCTTGGCGGATGTGCGGGATTCTGCGCGGAGTCACCTAGTGCAG | 3150 fluorescence intensity (a.u.)
CGGGTAGGCGAACACGTCGCTGACGCCGCACCGCTCCAGCCGGAGTCACCTAGTGCAG | 6760 fluorescence intensity (a.u.)
ACCACAATCCACCCCTTGTCTGAGTCAGTGGTTGGTCATCCGGAGTCACCTAGTGCAG | 5570 fluorescence intensity (a.u.)
CAGTTCCGATTGACAAGTCACGTTGACAATTCAAGTCAGACGGAGTCACCTAGTGCAG | 3940 fluorescence intensity (a.u.)
ATGAGCTCGTGCGTTGCTGATGGCGTCAGGACGATACCAGCGGAGTCACCTAGTGCAG | 4660 fluorescence intensity (a.u.)
GCTACTACGAAGGCGTAAACGTAATCGCCTCTCACGTCAGCGGAGTCACCTAGTGCAG | 3550 fluorescence intensity (a.u.)
TGGGAGGCAGCAGCCCGGCGGTGGTGGCGGATTGGCCGGGCGGAGTCACCTAGTGCAG | 4000 fluorescence intensity (a.u.)
CCGCGTCCGCGTCCCCGCCGACCTGCGCCACGCGCGCTACCGGAGTCACCTAGTGCAG | 3720 fluorescence intensity (a.u.)
AAGAGCCGAATCGAAGGCATCAGCACAATGGATGCCGACGCGGAGTCACCTAGTGCAG | 3440 fluorescence intensity (a.u.)
ACACAAGGGGAACGGGATAAAATTTATGGGCACGTAAGGGCGGAGTCACCTAGTGCAG | 3480 fluorescence intensity (a.u.)
GCTGACGTGTACAGAGCATGCCAGCTCAGCATCCACGTCACGGAGTCACCTAGTGCAG | 34100 fluorescence intensity (a.u.)
AACCAACTCTATCAGCGACACGCAACCTGATCGATTCCCCCGGAGTCACCTAGTGCAG | 4110 fluorescence intensity (a.u.)
GGATACTAAGGCCATCCCCAACCCTCCATGTCATCTAGTTCGGAGTCACCTAGTGCAG | 3200 fluorescence intensity (a.u.)
TACTCTGCCAATCTAAATTAATGATGTATGATATGGTCTCCGGAGTCACCTAGTGCAG | 4340 fluorescence intensity (a.u.)
AGCGGCCCGAACCTATATAATCCCCTGTTCTCGTACACAACGGAGTCACCTAGTGCAG | 8800 fluorescence intensity (a.u.)
GCAACTAGCGCTGGCCGGTGTCCACCACTGCTAGTCTCTGCGGAGTCACCTAGTGCAG | 31800 fluorescence intensity (a.u.)
ATTGAAGTAGTTACTGTTAATCGTGGCATAGTTGGCAACGCGGAGTCACCTAGTGCAG | 4040 fluorescence intensity (a.u.)
CCCTTCCTTCCTTCCTTTGCATCATCATCATCAACCCAATCGGAGTCACCTAGTGCAG | 4440 fluorescence intensity (a.u.)
GGTATCTGATTTTGCGGAAGAAGTGTCATCTGGGGTAAATCGGAGTCACCTAGTGCAG | 3990 fluorescence intensity (a.u.)
